No constants are given. Whether binding was seen depends on the method and setting. Some entries that bind do so weakly or less than the wild type.
Target: T1, bZIP63 (Arabidopsis thaliana) (UniProt B9DGI8)
T1 sequence: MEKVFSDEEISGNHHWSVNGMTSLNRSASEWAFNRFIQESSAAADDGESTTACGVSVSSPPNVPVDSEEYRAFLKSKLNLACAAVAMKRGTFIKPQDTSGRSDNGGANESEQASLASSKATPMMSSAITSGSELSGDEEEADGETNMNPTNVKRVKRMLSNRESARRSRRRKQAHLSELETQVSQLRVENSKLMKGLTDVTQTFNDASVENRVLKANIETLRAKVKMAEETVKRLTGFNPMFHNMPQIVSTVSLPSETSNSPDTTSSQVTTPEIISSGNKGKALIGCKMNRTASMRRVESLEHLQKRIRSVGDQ
Experiment: sequential DNA affinity purification with sequencing (sDAP-seq); SBPTag- and HaloTag-fused bZIPs co-expressed in vitro, incubated with adapter-ligated genomic DNA 1 h at room temperature; captured on streptavidin magnetic beads, eluted with 10 μM biotin, then captured on Halo beads; the bound DNA was sequenced

B1: bZIP53 (protein, UniProt Q9LZP8 1-146)
chain: MGSLQMQTSPESDNDPRYATVTDERKRKRMISNRESARRSRMRKQKQLGDLINEVTLLKNDNAKITEQVDEASKKYIEMESKNNVLRAQASELTDRLRSLNSVLEMVEEISGQALDIPEIPESMQNPWQMPCPMQPIRASADMFDC
With B1 the binding was “binds”.
